Small differences around the control level are noise.
Columns and labels:
Assay in all cases: normalised response (% of control), CellTox Green; higher = less cell death (100 = DMSO, 0 = benzethonium chloride kill control)
Settings in all cases: incubation time: 72 h
BT-549 = tested on: BT-549
Protocol: (§1)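 DSRT, 72 h incubation, CellTox Green / CellTiter-Glo readout. Signal is normalised to DMSO and benzethonium chloride controls. Value is the normalised response at the lowest tested concentration.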

CAL-85-1 = tested on: CAL-85-1
Protocol: as §1

MDA-MB-468 = tested on: MDA-MB-468
Protocol: as §1

MDA-MB-453 = tested on: MDA-MB-453
Protocol: as §1

CAL-148 = tested on: CAL-148
Protocol: as §1

HDQ-P1 = tested on: HDQ-P1
Protocol: as §1

DU-4475 = tested on: DU-4475
Protocol: as §1

HCC1143 = tested on: HCC1143
Protocol: as §1

MDA-MB-436 = tested on: MDA-MB-436
Protocol: as §1

Hs578T = tested on: Hs578T
Protocol: as §1

MFM-223 = tested on: MFM-223
Protocol: as §1

CAL-51 = tested on: CAL-51
Protocol: as §1

HCC1599 = tested on: HCC1599
Protocol: as §1

HCC1937 = tested on: HCC1937
Protocol: as §1

BT-474 = tested on: BT-474
Protocol: as §1

MDA-MB-231 = tested on: MDA-MB-231
Protocol: as §1

CAL-120 = tested on: CAL-120
Protocol: as §1

MCF-10A = tested on: MCF-10A
Protocol: as §1

SMILES	normalised response (BT-549) [%]	normalised response (CAL-85-1) [%]	normalised response (MDA-MB-468) [%]	normalised response (MDA-MB-453) [%]	normalised response (CAL-148) [%]	normalised response (HDQ-P1) [%]	normalised response (DU-4475) [%]	normalised response (HCC1143) [%]	normalised response (MDA-MB-436) [%]	normalised response (Hs578T) [%]	normalised response (MFM-223) [%]	normalised response (CAL-51) [%]	normalised response (HCC1599) [%]	normalised response (HCC1937) [%]	normalised response (BT-474) [%]	normalised response (MDA-MB-231) [%]	normalised response (CAL-120) [%]	normalised response (MCF-10A) [%]
CC/C(=C(\c1ccc(O)cc1)c1ccc(OCCN(C)C)cc1)c1ccccc1 [4-hydroxytamoxifen] (1 nM)	98.8	91.2	104	105	70.9	99	112	99.7	98.4	102	69	113	117	106	99.7	106	106	96.3
C=C(c1ccc(C(=O)O)cc1)c1cc2c(cc1C)C(C)(C)CCC2(C)C [Bexarotene] (1 nM)	99.8	112	78.1	103	103	95.5	99.3	123	85.7	80	94	105	99.7	61.9	103	93.3	83.1	107
Cc1ccc(NC(=O)c2ccc(CN3CCN(C)CC3)cc2)cc1Nc1nccc(-c2cccnc2)n1 [Imatinib] (1 nM)	93.8	98.7	85	105	106	85	101	121	101	98.6	101	85.9	104	98.4	80.5	60.2	102	76.7
NC(=O)c1ccc(I)c([N+](=O)[O-])c1 [Iniparib] (1 nM)	111	99.9	75.2	93.9	98.9	90.1	91.8	87.7	75.8	75.4	99	107	90.3	99.1	97	93.8	99.1	94.6
N#Cc1ccc(C(c2ccc(C#N)cc2)n2cncn2)cc1 [Letrozole] (1 nM)	92.9	95.2	98.5	101	98.8	102	103	106	101	108	100	119	102	69.9	98.6	103	101	93
c1ccc([C@H]2CN3CCSC3=N2)cc1 [Levamisole] (1 nM)	98.5	102	119	107	102	99.2	104	55.7	89.2	104	101	96.6	96.8	82.8	75.8	103	101	109
CC(=O)O[C@]1(C(C)=O)CC[C@H]2[C@@H]3C=C(C)C4=CC(=O)CC[C@]4(C)[C@H]3CC[C@@]21C [Megestrol acetate] (1 nM)	103	90.7	102		94.8	80.2	100	81.6	52	78.2	94.1	108	104	119	97.9	100	99.6	107
O=C(c1cc(Cc2n[nH]c(=O)c3ccccc23)ccc1F)N1CCN(C(=O)C2CC2)CC1 [Olaparib] (1 nM)	97.6	107	114	106	91.2	98.7	99.1	111	86.3	105	104	107	97.2	100	95	101	98.8	57
CO[C@H](C(=O)[C@@H](O)[C@@H](C)O)[C@@H]1Cc2cc3cc(O[C@H]4C[C@@H](O[C@@H]5C[C@@H](O)[C@H](O)[C@@H](C)O5)[C@H](O)[C@@H](C)O4)c(C)c(O)c3c(O)c2C(=O)[C@H]1O[C@H]1C[C@@H](O[C@@H]2C[C@@H](O)[C@@H](O[C@@H]3C[C@](C)(O)[C@H](O)[C@@H](C)O3)[C@@H](C)O2)[C@H](O)[C@@H](C)O1 [Plicamycin] (1 nM)	97.5	98.6	85.3	109	98	99.1	103	110	54.7	106	94.6	109	99.2	57.5	102	108	105	103
CNCc1ccc(-c2[nH]c3cc(F)cc4c3c2CCNC4=O)cc1 [Rucaparib] (1 nM)	104	101	90.2	99.9	92.4	94.2	95.3	121	71.2	99.6	52.9	102	95.5	57.7	97.9	88.1	98.7	81.2
COc1cc2nccc(Oc3ccc(NC(=O)Nc4cc(C)on4)c(Cl)c3)c2cc1OC [Tivozanib] (1 nM)	96.6	106	76.1	108	99.1		94.2	115	83.6	79.7	100	109	92.8	77.8	102	105	92.9	97.6
